Measured values published in paper PMC3990687.
No constants are given. Whether binding was seen depends on the method and setting. Binding seen in cells or lysates may run through a third protein. Some binding calls cover weakened binding; strength is not graded here.

The chains behind the UniProt entries cited, without tags or fusion partners.
UniProt Q9UBK9: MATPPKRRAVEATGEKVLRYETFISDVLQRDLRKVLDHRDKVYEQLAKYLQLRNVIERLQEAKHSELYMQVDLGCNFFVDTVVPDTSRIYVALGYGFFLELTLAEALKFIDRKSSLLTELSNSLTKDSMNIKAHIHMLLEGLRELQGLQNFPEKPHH
UniProt Q92908: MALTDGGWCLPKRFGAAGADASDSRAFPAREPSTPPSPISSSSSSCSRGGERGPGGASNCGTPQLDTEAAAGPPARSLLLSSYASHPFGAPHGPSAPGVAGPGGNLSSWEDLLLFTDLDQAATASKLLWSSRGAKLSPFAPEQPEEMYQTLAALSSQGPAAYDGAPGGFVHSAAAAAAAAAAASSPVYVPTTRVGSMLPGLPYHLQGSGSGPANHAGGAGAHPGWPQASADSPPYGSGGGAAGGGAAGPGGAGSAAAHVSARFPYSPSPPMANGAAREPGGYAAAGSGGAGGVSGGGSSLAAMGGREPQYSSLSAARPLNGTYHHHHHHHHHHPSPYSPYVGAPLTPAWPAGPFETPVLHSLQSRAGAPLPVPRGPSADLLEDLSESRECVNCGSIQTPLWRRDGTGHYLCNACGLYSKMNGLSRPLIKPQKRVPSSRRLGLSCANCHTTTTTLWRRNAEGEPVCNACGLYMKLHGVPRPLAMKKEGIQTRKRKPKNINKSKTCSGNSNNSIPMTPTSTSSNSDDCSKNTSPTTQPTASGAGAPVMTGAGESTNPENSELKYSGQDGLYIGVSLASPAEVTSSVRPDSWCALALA
UniProt P42582: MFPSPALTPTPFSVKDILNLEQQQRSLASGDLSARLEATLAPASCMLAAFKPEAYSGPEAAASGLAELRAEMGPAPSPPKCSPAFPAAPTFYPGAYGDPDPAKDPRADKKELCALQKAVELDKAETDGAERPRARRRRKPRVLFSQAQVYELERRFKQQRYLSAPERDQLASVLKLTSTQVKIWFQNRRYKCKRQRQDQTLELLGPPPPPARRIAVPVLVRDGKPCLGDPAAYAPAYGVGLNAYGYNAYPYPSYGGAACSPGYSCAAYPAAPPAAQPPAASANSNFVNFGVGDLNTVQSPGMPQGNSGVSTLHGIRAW
UniProt P15976: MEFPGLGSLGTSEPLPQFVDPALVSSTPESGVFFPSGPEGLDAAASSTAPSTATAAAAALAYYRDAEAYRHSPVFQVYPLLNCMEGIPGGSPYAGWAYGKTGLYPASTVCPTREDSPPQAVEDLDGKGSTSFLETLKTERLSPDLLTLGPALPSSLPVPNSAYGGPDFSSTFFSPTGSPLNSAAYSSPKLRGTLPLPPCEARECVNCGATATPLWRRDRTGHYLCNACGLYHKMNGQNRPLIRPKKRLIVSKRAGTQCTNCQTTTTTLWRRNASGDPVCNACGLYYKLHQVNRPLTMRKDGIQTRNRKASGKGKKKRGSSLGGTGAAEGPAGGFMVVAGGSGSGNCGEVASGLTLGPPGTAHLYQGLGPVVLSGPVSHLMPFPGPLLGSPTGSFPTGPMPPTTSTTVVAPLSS

Each substance was assayed against full length Art27/GST fusion protein (human) (UniProt Q9UBK9) (assay: pull-down; GST fusion or GST immobilised on glutathione sepharose beads, incubated with in vitro translated 35S-labelled protein; 150 mM NaCl, 20 mM Tris-HCl, 0.1% NP-40, 2.5 mg/ml BSA, 10 nM ZnSO4; SDS-PAGE and phosphorimaging; only the target purified).

| Substance | binding |
| --- | --- |
| In vitro translated and 35S radiolabeled GATA-6 (from UniProt Q92908 1-595) | binds |
| In vitro translated and 35S radiolabeled Nkx2.5 (from UniProt P42582 1-318) | binds |
| In vitro translated and 35S radiolabeled GATA-1 (from UniProt P15976 1-413) | binds |
